These are yes or no findings as the source states them, for the method shown. A result given as binding can be weak or reduced; the word gives no strength. Where a sequence is shown, tags or fusion partners need not be part of it. For part of these data: In cells and extracts the contact can be indirect.
Legend:
[1] = target: T1, Scube2 tagged with an hexahistidine tag at the N-terminus (human) (UniProt Q9NQ36); experiment: QCM-D; purified Scube2 preincubated with purified ApoA1 or HDL and flowed over a heparin-functionalised supported lipid bilayer (biotin-heparin on streptavidin); 22 °C, 10 mM Tris, 100 mM NaCl, pH 7.4, 20 µl per min; ApoA1 or HDL alone as controls; both purified
T1 sequence: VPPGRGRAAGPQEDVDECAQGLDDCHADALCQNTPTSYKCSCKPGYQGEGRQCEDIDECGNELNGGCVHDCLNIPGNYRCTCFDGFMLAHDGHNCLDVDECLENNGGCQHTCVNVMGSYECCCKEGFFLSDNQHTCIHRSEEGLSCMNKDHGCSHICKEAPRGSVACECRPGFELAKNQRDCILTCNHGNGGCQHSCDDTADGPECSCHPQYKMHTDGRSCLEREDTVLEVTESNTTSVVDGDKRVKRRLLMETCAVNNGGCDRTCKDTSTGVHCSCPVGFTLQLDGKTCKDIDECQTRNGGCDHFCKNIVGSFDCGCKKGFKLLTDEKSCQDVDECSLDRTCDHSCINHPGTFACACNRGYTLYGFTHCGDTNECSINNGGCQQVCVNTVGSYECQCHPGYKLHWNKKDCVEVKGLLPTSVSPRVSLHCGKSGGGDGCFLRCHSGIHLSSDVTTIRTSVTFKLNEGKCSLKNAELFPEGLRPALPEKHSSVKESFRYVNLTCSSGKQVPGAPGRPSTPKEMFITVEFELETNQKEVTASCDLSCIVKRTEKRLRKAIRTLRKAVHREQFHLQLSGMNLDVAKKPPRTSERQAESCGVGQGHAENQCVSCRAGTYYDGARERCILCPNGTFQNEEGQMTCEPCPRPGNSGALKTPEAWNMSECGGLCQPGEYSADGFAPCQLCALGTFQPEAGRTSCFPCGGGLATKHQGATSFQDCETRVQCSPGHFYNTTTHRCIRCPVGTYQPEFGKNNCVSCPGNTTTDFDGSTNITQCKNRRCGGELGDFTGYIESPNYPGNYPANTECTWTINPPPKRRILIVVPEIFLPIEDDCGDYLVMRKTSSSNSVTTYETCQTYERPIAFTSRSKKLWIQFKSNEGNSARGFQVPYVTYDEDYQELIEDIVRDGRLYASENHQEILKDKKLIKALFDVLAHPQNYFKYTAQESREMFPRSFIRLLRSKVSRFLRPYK

Chains of the proteins cited; added tags and fusions are not shown. Lines headed by an entry give the natural chain unless they say otherwise; changes in a name come on top.
UniProt P02647: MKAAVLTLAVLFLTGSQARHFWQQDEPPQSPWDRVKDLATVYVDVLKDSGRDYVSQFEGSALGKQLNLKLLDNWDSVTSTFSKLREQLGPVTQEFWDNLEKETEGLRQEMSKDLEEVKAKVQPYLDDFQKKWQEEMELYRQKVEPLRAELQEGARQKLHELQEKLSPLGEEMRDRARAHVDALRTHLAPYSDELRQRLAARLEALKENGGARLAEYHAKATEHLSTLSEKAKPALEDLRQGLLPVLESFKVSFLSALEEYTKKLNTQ

[2] = target: T2, FLAG-tagged Scube2 (signal sequence, cubulin (CUB) domain, epidermal growth factor (EGF)-like protein 2) (human) (UniProt Q9NQ36); experiment: co-IP; FLAG-tagged Scube2 variants from transfected HEK cells bound to anti-FLAG M2-agarose, with purified ApoA1; overnight at 4 °C, three washes with TBS; blot with α-FLAG and α-ApoA1 antibodies; only the binder purified
T2 sequence: T1 sequence

## purified human HDL (high-density lipoprotein) (complex)
[1]
  binding: binds

## purified ApoA1 (apolipoprotein A1) (from UniProt P02647)
[1]
  binding: binds
[2]
  binding: binds

From article PMC12881369
